Laboratory results from paper doi:10.1101/2024.07.25.605195 (bioRxiv, 2024).
No constants are given. Whether binding was seen depends on the method and setting. Some binding calls cover weakened binding; strength is not graded here.

Amino acid sequences for entries named in this document (tags omitted).
UniProt Q9Z2E9, whole entry: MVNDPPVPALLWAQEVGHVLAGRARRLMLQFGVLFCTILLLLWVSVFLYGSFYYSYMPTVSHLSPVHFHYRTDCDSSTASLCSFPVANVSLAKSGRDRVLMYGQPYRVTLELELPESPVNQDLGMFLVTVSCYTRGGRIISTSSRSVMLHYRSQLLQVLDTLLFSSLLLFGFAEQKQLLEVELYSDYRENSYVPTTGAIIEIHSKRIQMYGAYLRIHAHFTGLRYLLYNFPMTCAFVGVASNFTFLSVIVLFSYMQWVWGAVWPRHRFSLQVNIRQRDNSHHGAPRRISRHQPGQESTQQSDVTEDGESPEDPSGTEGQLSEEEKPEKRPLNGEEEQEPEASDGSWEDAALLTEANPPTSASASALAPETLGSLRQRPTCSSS

Target: Seipin-V5, transfected into HEK293T cells (UniProt Q9Z2E9)
Assay: SEC

“Seipin-V5, transfected into HEK293T cells (from UniProt Q9Z2E9 1-383)” was tested, and the binding was “binds”.
